This note sets out measurements from paper doi:10.1101/495762 (bioRxiv, 2018).

Positions count from the first letter of the chain named. Numbers in names are those of the source. These are yes or no findings as the source states them, for the method shown. In cells and extracts the contact can be indirect. Some binding calls cover weakened binding; strength is not graded here. Tags and fused reporters may be left off the sequences shown.

The target in experiment [1] is T1, Smc3(K198C)-HaloTag (S. cerevisiae) (UniProt P47037).
T1 sequence: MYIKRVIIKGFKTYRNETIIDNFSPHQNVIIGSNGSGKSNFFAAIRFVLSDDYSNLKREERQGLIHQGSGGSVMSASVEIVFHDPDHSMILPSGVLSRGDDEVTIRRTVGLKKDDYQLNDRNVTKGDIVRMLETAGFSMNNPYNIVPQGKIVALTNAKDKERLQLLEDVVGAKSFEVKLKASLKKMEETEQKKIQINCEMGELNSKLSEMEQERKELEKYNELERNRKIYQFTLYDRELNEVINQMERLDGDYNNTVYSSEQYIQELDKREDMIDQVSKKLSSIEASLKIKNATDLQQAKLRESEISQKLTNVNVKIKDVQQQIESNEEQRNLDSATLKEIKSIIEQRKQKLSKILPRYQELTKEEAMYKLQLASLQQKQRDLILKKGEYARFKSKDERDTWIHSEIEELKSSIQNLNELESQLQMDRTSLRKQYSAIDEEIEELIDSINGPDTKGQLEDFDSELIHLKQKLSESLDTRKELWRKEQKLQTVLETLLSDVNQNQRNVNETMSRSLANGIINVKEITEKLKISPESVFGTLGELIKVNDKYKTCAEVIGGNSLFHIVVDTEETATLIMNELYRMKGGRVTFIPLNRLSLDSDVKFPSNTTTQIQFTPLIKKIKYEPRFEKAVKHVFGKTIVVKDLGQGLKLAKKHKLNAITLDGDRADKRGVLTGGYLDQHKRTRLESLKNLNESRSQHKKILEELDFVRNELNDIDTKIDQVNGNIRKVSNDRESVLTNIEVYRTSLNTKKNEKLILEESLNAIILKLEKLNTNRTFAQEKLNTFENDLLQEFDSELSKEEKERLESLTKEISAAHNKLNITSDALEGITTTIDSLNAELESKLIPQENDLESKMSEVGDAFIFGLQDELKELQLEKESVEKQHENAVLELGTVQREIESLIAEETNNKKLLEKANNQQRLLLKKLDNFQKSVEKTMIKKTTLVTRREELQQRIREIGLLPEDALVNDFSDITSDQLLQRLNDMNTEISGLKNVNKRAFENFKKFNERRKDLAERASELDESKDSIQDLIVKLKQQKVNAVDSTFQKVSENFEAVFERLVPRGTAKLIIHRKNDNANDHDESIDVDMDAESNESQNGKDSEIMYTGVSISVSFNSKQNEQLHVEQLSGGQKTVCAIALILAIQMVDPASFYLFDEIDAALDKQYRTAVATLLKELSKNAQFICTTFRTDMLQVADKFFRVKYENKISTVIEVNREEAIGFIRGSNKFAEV
As to the kind of experiment: cross-linking.

In experiment [2] the target is T2, Smc3(E570C, E1155Q)-HaloTag (S. cerevisiae) (UniProt P47037).
T2 sequence: T1 sequence with C198K, E570C, E1155Q
Kind of experiment: cross-linking.

B1: Smc1(K201C) (protein, UniProt P32908 1-1225)
chain: MGRLVGLELSNFKSYRGVTKVGFGESNFTSIIGPNGSGKSNMMDAISFVLGVRSNHLRSNILKDLIYRGVLNDENSDDYDNEGAASSNPQSAYVKAFYQKGNKLVELMRIISRNGDTSYKIDGKTVSYKDYSIFLENENILIKAKNFLVFQGDVEQIAAQSPVELSRMFEEVSGSIQYKKEYEELKEKIEKLSKSATESICNRRRIHGELKTYKEGINKNEEYRKQLDKKNELQKFQALWQLYHLEQQKEELTDKLSALNSEISSLKGKINNEMKSLQRSKSSFVKESAVISKQKSKLDYIFKDKEKLVSDLRLIKVPQQAAGKRISHIEKRIESLQKDLQRQKTYVERFETQLKVVTRSKEAFEEEIKQSARNYDKFKLNENDLKTYNCLHEKYLTEGGSILEEKIAVLNNDKREIQEELERFNKRADISKRRITEELSITGEKLDTQLNDLRVSLNEKNALHTERLHELKKLQSDIESANNQEYDLNFKLRETLVKIDDLSANQRETMKERKLRENIAMLKRFFPGVKGLVHDLCHPKKEKYGLAVSTILGKNFDSVIVENLTVAQECIAFLKKQRAGTASFIPLDTIETELPTLSLPDSQDYILSINAIDYEPEYEKAMQYVCGDSIICNTLNIAKDLKWKKGIRGKLVTIEGALIHKAGLMTGGISGDANNRWDKEEYQSLMSLKDKLLIQIDELSNGQRSNSIRAREVENSVSLLNSDIANLRTQVTQQKRSLDENRLEIKYHNDLIEKEIQPKITELKKKLDDLENTKDNLVKEKEALQNNIFKEFTSKIGFTIKEYENHSGELMRQQSKELQQLQKQILTVENKLQFETDRLSTTQRRYEKAQKDLENAQVEMKSLEEQEYAIEMKIGSIESKLEEHKNHLDELQKKFVTKQSELNSSEDILEDMNSNLQVLKRERDGIKEDIEKFDLERVTALKNCKISNINIPISSETTIDDLPISSTDNEAITISNSIDINYKGLPKKYKENNTDSARKELEQKIHEVEEILNELQPNARALERYDEAEGRFEVINNETEQLKAEEKKILNQFLKIKKKRKELFEKTFDYVSDHLDAIYRELTKNPNSNVELAGGNASLTIEDEDEPFNAGIKYHATPPLKRFKDMEYLSGGEKTVAALALLFAINSYQPSPFFVLDEVDAALDITNVQRIAAYIRRHRNPDLQFIVISLKNTMFEKSDALVGVYRQQQENSSKIITLDLSNYAE
With B1, the binding entry in experiment [1] is given as “binds”.

B2: Smc1(K639C) (protein, UniProt P32908 1-1225)
chain: B1 chain with C201K, K639C
As to B2, in experiment [2], the binding result is “binds”.
